In PubChem BioAssay AID272 (DTP/NCI, 2004):
The list is a part of this screen's results and no random one: it is rich in T/C values a quarter to a half above the control, in often repeated tests (any T/C) and in doses without a T/C. Further doses and runs are listed elsewhere. T/C gives the treated animals as a percentage of the vehicle group. Schedules are NCI's codes, read here as Q, the interval in days (D) or hours (H), X, the number of doses. Counts like (3×) say how often a value occurs here. Some T/C values are followed by the survivors on the day toxicity was checked, most often the fifth; without a count, all were alive then. Some doses were run more than once; the values are given in rising order. Some entries give survivors of the animals treated and no T/C: the source files T/C as zero there, which appears to mark a toxic dose or a test without result, not a measured value. Survivors were counted at the toxicity check, usually on the fifth day, unless a day is given; later deaths do not show. Where survival is the endpoint, this PubChem deposit counts one and a half times the control or more as active, and values a quarter to a half above the control carry no call in these data; other NCI protocols may use other cut-offs.

System: Lewis lung carcinoma i.m., BDF1 mice, T/C %
Assay: NCI In Vivo Anticancer Drug Screen. Data for tumor model Lewis Lung Carcinoma (intramuscular) in B6D2F1 (BDF1) mice
Summary of the method: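 Mice carrying transplantable tumours received test compound. Survival or tumour size was recorded and expressed as the treated-group value (T) divided by the vehicle-treated control-group value (C).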

Cc1c(N)nc([C@H](CC(N)=O)NC[C@H](N)C(N)=O)nc1C(=O)N[C@H](C(=O)N[C@H](C)[C@@H](O)[C@H](C)C(=O)N[C@H](C(=O)NCCc1nc(-c2nc(C(=O)NCCC[S+](C)C)cs2)cs1)[C@@H](C)O)C(OC1OC(CO)C(O)C(O)C1OC1OC(CO)C(O)C(OC(N)=O)C1O)c1cnc[nH]1 (some centres undefined)
T/C (T/C endpoint: mean tumor weight, dose: 3.0 mg/kg/injection, schedule: Q01DX009 (ip), vehicle: saline, evaluated on day 10, higher T/C = larger tumour): 17 and 223 % of control
T/C (T/C endpoint: mean tumor weight, dose: 3.0 mg/kg/injection, schedule: Q01DX009 (ip), vehicle: saline, evaluated on day 12, higher T/C = larger tumour): 34 % of control (2×)
survivor count (T/C endpoint: mean tumor weight, dose: 3.0 mg/kg/injection, schedule: Q01DX009 (ip), vehicle: saline, higher T/C = larger tumour): 4 of 8
T/C (T/C endpoint: mean tumor weight, dose: 5.0 mg/kg/injection, schedule: Q01DX009 (ip), vehicle: saline, evaluated on day 10, higher T/C = larger tumour): 11, 47, 141 % of control
T/C (T/C endpoint: mean tumor weight, dose: 5.0 mg/kg/injection, schedule: Q01DX009 (ip), vehicle: saline, evaluated on day 12, higher T/C = larger tumour): 11, 18 [7 of 8 alive], 22, 24, 29 % of control
T/C (T/C endpoint: mean tumor weight, dose: 8.4 mg/kg/injection, schedule: Q01DX009 (ip), vehicle: saline, evaluated on day 10, higher T/C = larger tumour): 12, 14, 160 % of control
T/C (T/C endpoint: mean tumor weight, dose: 8.4 mg/kg/injection, schedule: Q01DX009 (ip), vehicle: saline, evaluated on day 12, higher T/C = larger tumour): 5, 6 (2×), 11 [7 of 8 alive], 19 % of control [7 of 8 alive]
T/C (T/C endpoint: mean tumor weight, dose: 14.0 mg/kg/injection, schedule: Q01DX009 (ip), vehicle: saline, evaluated on day 12, higher T/C = larger tumour): 4 [6 of 7 alive] and 4 % of control [7 of 8 alive]
T/C (T/C endpoint: mean tumor weight, dose: 23.0 mg/kg/injection, schedule: Q01DX009 (ip), vehicle: saline, evaluated on day 10, higher T/C = larger tumour): 5 [7 of 8 alive], 7 [7 of 8 alive], 97 % of control [6 of 7 alive]
T/C (T/C endpoint: mean tumor weight, dose: 23.0 mg/kg/injection, schedule: Q01DX009 (ip), vehicle: saline, evaluated on day 12, higher T/C = larger tumour): 5 % of control [6 of 8 alive]
survivor count (T/C endpoint: mean tumor weight, dose: 65.0 mg/kg/injection, schedule: Q04DX003 (ip), vehicle: saline, higher T/C = larger tumour): 5 of 8
survivor count (T/C endpoint: mean tumor weight, dose: 73.0 mg/kg/injection, schedule: Q01DX001 (ip), vehicle: saline, higher T/C = larger tumour): 4 of 8
survivor count (T/C endpoint: mean tumor weight, dose: 80.0 mg/kg/injection, schedule: Q04DX003 (ip), vehicle: saline, higher T/C = larger tumour): 0 of 4
T/C (T/C endpoint: median survival time, dose: 1.8 mg/kg/injection, schedule: Q09DX009 (ip), vehicle: saline, evaluated on day 10, higher T/C = longer survival): 132 % of control
T/C (T/C endpoint: median survival time, dose: 1.8 mg/kg/injection, schedule: Q09DX009 (ip), vehicle: saline, evaluated on day 50, higher T/C = longer survival): 132 % of control
T/C (T/C endpoint: median survival time, dose: 2.0 mg/kg/injection, schedule: Q01DX011 (ip), vehicle: saline, higher T/C = longer survival): 129 % of control
T/C (T/C endpoint: median survival time, dose: 2.3 mg/kg/injection, schedule: Q01DX011 (ip), vehicle: saline, higher T/C = longer survival): 143 % of control
T/C (T/C endpoint: median survival time, dose: 3.0 mg/kg/injection, schedule: Q01DX009 (ip), vehicle: saline, evaluated on day 11, higher T/C = longer survival): 140 % of control
T/C (T/C endpoint: median survival time, dose: 3.0 mg/kg/injection, schedule: Q01DX009 (ip), vehicle: saline, evaluated on day 12, higher T/C = longer survival): 134 % of control
T/C (T/C endpoint: median survival time, dose: 3.0 mg/kg/injection, schedule: Q01DX009 (ip), vehicle: saline, evaluated on day 14, higher T/C = longer survival): 106 % of control
T/C (T/C endpoint: median survival time, dose: 3.0 mg/kg/injection, schedule: Q01DX009 (ip), vehicle: saline, evaluated on day 43, higher T/C = longer survival): 132 % of control
T/C (T/C endpoint: median survival time, dose: 3.0 mg/kg/injection, schedule: Q01DX009 (ip), vehicle: saline, evaluated on day 52, higher T/C = longer survival): 106 % of control
survivor count (T/C endpoint: median survival time, dose: 3.0 mg/kg/injection, schedule: Q01DX009 (ip), vehicle: saline, higher T/C = longer survival): 4 of 8
T/C (T/C endpoint: median survival time, dose: 3.9 mg/kg/injection, schedule: Q01DX011 (ip), vehicle: saline, higher T/C = longer survival): 131 % of control
T/C (T/C endpoint: median survival time, dose: 4.0 mg/kg/injection, schedule: Q01DX009 (ip), vehicle: water, evaluated on day 30, higher T/C = longer survival): 119 % of control
T/C (T/C endpoint: median survival time, dose: 4.0 mg/kg/injection, schedule: Q01DX009 (ip), vehicle: water, evaluated on day 45, higher T/C = longer survival): 117 and 124 % of control
T/C (T/C endpoint: median survival time, dose: 4.0 mg/kg/injection, schedule: Q01DX009 (ip), vehicle: water, evaluated on day 60, higher T/C = longer survival): 135 % of control
T/C (T/C endpoint: median survival time, dose: 4.0 mg/kg/injection, schedule: Q01DX011 (ip), vehicle: saline, higher T/C = longer survival): 134 and 144 % of control
T/C (T/C endpoint: median survival time, dose: 5.0 mg/kg/injection, schedule: Q01DX009 (ip), vehicle: saline, evaluated on day 10, higher T/C = longer survival): 106 % of control
T/C (T/C endpoint: median survival time, dose: 5.0 mg/kg/injection, schedule: Q01DX009 (ip), vehicle: saline, evaluated on day 11, higher T/C = longer survival): 117 % of control
T/C (T/C endpoint: median survival time, dose: 5.0 mg/kg/injection, schedule: Q01DX009 (ip), vehicle: saline, evaluated on day 12, higher T/C = longer survival): 103 and 131 % of control
T/C (T/C endpoint: median survival time, dose: 5.0 mg/kg/injection, schedule: Q01DX009 (ip), vehicle: saline, evaluated on day 14, higher T/C = longer survival): 132 % of control
T/C (T/C endpoint: median survival time, dose: 5.0 mg/kg/injection, schedule: Q01DX009 (ip), vehicle: saline, evaluated on day 41, higher T/C = longer survival): 104 % of control
T/C (T/C endpoint: median survival time, dose: 5.0 mg/kg/injection, schedule: Q01DX009 (ip), vehicle: saline, evaluated on day 43, higher T/C = longer survival): 102 % of control
T/C (T/C endpoint: median survival time, dose: 5.0 mg/kg/injection, schedule: Q01DX009 (ip), vehicle: saline, evaluated on day 45, higher T/C = longer survival): 130 % of control [7 of 8 alive]
T/C (T/C endpoint: median survival time, dose: 5.0 mg/kg/injection, schedule: Q01DX009 (ip), vehicle: saline, evaluated on day 48, higher T/C = longer survival): 143 and 165 % of control
T/C (T/C endpoint: median survival time, dose: 5.0 mg/kg/injection, schedule: Q01DX009 (ip), vehicle: saline, evaluated on day 52, higher T/C = longer survival): 132 % of control
T/C (T/C endpoint: median survival time, dose: 6.0 mg/kg/injection, schedule: Q01DX011 (ip), vehicle: saline, higher T/C = longer survival): 140 % of control
T/C (T/C endpoint: median survival time, dose: 8.0 mg/kg/injection, schedule: Q01DX009 (ip), vehicle: saline, higher T/C = longer survival): 145 % of control
T/C (T/C endpoint: median survival time, dose: 8.0 mg/kg/injection, schedule: Q01DX009 (ip), vehicle: water, evaluated on day 30, higher T/C = longer survival): 120 % of control
T/C (T/C endpoint: median survival time, dose: 8.0 mg/kg/injection, schedule: Q01DX009 (ip), vehicle: water, evaluated on day 45, higher T/C = longer survival): 133 and 189 % of control
T/C (T/C endpoint: median survival time, dose: 8.0 mg/kg/injection, schedule: Q01DX009 (ip), vehicle: water, evaluated on day 60, higher T/C = longer survival): 124 % of control
T/C (T/C endpoint: median survival time, dose: 8.0 mg/kg/injection, schedule: Q01DX011 (ip), vehicle: saline, higher T/C = longer survival): 131 % of control [9 of 10 alive]
T/C (T/C endpoint: median survival time, dose: 8.4 mg/kg/injection, schedule: Q01DX009 (ip), vehicle: saline, evaluated on day 10, higher T/C = longer survival): 135 % of control
T/C (T/C endpoint: median survival time, dose: 8.4 mg/kg/injection, schedule: Q01DX009 (ip), vehicle: saline, evaluated on day 11, higher T/C = longer survival): 160 % of control
T/C (T/C endpoint: median survival time, dose: 8.4 mg/kg/injection, schedule: Q01DX009 (ip), vehicle: saline, evaluated on day 12, higher T/C = longer survival): 143 and 151 % of control
T/C (T/C endpoint: median survival time, dose: 8.4 mg/kg/injection, schedule: Q01DX009 (ip), vehicle: saline, evaluated on day 14, higher T/C = longer survival): 146 % of control
T/C (T/C endpoint: median survival time, dose: 8.4 mg/kg/injection, schedule: Q01DX009 (ip), vehicle: saline, evaluated on day 41, higher T/C = longer survival): 136 % of control
T/C (T/C endpoint: median survival time, dose: 8.4 mg/kg/injection, schedule: Q01DX009 (ip), vehicle: saline, evaluated on day 45, higher T/C = longer survival): 144 % of control
